From patent publication US20080269102A1, “3-(2-Alkoxycarbonyloxy-Phenyl) Acrylic Acid Esters And Their Use As Precursors For The Delivery Of Olfactory Compounds” (GIVAUDAN SA, priority 2004, published 2008) come the findings set out here.

The nature of this data set: Deposition and cleavage of fragrance precursors on cotton towels in a wash/rinse cycle with fabric conditioner. Conditions: for Cleavage [%]: cleavage of protecting group, washing powder containing protease, cellulase and lipase; for Modified Prec. [Depos. %]: protected precursor found on cotton towels after 40° C. wash/rinse cycle and 24 h drying in the dark; for Modified Prec. [Depos. %] / Free prec. [Depos. %]: mean of three towels, % of theory of molar amount applied; for Free prec. [Depos. %]: unprotected precursor found on cotton towels after 40° C. wash/rinse cycle and 24 h drying in the dark.

Molecules are shown by their SMILES.

For `CC(C)=CCCC(C)CCOC(=O)C=Cc1ccccc1OC(=O)OCCC(C)CCC=C(C)C` (centres unmarked) [Example 5, 3-[2-(3,7-Dimethyl-oct-6-enyloxycarbonyloxy)phenyl]acrylic acid 3,7-dimethyl-oct-6-enyl ester], the “Cleavage [%]” value is 14%, the “Modified Prec. [Depos. %]” value was 69% and the “Free prec. [Depos. %]” value was determined as 11%.

For the compound `C=CCCCCCCCCOC(=O)C=Cc1ccccc1OC(=O)OCC` [Example 14, 3-(2-Ethoxycarbonyloxy-phenyl)acrylic acid dec-9-enyl ester], the “Cleavage [%]” value worked out at 91%, the “Modified Prec. [Depos. %]” value was 5% and the “Free prec. [Depos. %]” value came to 42%.

On to `CCC=CCCOC(=O)Oc1ccccc1C=CC(=O)OCCC(C)CCC=C(C)C` (centres unmarked) [Example 6, 3-(2-Hex-3-enyloxycarbonyloxy-phenyl)acrylic acid 3,7-dimethyl-oct-6-enyl ester], for which the “Cleavage [%]” value was 97%, the “Modified Prec. [Depos. %]” value is recorded as 2% and the “Free prec. [Depos. %]” value stood at 50%.

For `C=CCCCCCCCCOC(=O)C=Cc1ccccc1O` [Example 2, 3-(2-Hydroxy-phenyl)acrylic acid dec-9-enyl ester], the “Free prec. [Depos. %]” value stood at 46%.

Turning to `CC(C)=CCCC(C)CCOC(=O)C=Cc1ccccc1O` (centres unmarked) [Example 1, 3-(2-Hydroxy-phenyl)acrylic acid 3,7-dimethyl-oct-6-enyl ester], the “Free prec. [Depos. %]” value is recorded as 45%.

On to `C=CCCCCCCCCOC(=O)C=Cc1ccccc1OC(=O)OCCCCCCCCC=C` [Example 4, 3-(2 Dec. 9-enyloxycarbonyloxy-phenyl)acrylic acid dec-9-enyl ester], for which the “Cleavage [%]” value amounted to 68%, the “Modified Prec. [Depos. %]” value came out at 32% and the “Free prec. [Depos. %]” value turned out to be 34%.

In the case of `C=CCCCCCCCCOC(=O)C=Cc1ccccc1OC(=O)Oc1ccccc1C=CC(=O)OCCCCCCCCC=C` [Example 3], the “Cleavage [%]” value was 66%, the “Modified Prec. [Depos. %]” value was 34% and the “Free prec. [Depos. %]” value is 66%.
